## Results from one PubChem assay

By UniProt entry, the sequences of proteins in these tests, tags left out.
UniProt Q9HAZ1, whole entry, target on record: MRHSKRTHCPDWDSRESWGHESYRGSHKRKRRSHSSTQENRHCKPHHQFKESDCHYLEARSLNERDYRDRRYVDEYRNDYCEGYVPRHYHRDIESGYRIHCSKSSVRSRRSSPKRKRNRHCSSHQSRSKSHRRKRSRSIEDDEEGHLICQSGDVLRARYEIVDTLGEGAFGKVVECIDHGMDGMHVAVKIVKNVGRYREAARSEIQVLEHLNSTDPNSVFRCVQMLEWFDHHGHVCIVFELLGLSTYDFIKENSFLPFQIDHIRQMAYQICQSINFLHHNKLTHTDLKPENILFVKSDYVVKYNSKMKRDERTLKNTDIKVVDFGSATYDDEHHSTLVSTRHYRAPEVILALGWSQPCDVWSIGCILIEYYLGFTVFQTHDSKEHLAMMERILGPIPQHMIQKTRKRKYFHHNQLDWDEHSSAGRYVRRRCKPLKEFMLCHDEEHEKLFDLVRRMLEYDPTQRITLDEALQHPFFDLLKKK

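Kinase-Glo luminescence measures ATP left unused after a 4.5-hour room-temperature reaction of recombinant CDC-like kinase 4, so stronger inhibition leaves more ATP. Each compound was titrated in seven steps from about 0.0043 to 67 µM. Potency is the fitted concentration giving half of the maximal inhibition (AC50, nM); a lower value means a more potent inhibitor. Calls follow the curve class and a score derived from it, with inconclusive meaning a score of 1–39; these rows show falling curves that are mostly partial or top-dose-only, a few full ones.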

Values are in nM. Every entry below has the call inconclusive. These entries are mostly ones the record files as inconclusive; other results of the assay are not listed here. A potency from a partial, single-point or poor curve is only a rough figure. Some entries filed as inconclusive have a full curve. Activity scores are not listed here.

For Cc1cnc(CNc2cc(-c3ccccc3Cl)ncn2)cn1 the result was fitted potency 28183 nM (falling, partial curve). Result for Fc1ccc(Nc2ncncc2-c2ccoc2)cc1 was fitted potency 19952 nM (falling, partial curve). With COCCn1c(=O)c(-c2cccc(C#N)c2)nc2cnc(Nc3ccccc3)nc21 the assay gave fitted potency 1412 nM (falling, full curve, poor fit). With Cn1c(=O)c(-c2cc(F)cc(F)c2)nc2cncnc21 the assay gave fitted potency 19952 nM (falling, single point). Result for CNc1nc(-c2cccc(C#N)c2)nc2ccccc12 was fitted potency 10000 nM (falling, partial curve).

COc1cccc(-c2nccc(NCc3cnc(C)cn3)n2)c1 gave fitted potency 25118 nM (falling, partial curve). For COc1ccc2[nH]cc(CCNc3ccnc(-c4ccc5c(c4)OCO5)n3)c2c1 the result was fitted potency 31622 nM (falling, partial curve). With COCCn1c(=O)c(C)nc2cnc(Nc3ccccc3)nc21 the assay gave fitted potency 3162 nM (falling, full curve). Result for CN(C)C(=O)c1ccc(-c2ccc3ncnc(N4CCOCC4)c3c2)cc1 was fitted potency 28183 nM (falling, partial curve). For Cc1ccccc1-c1ccc2ncnc(N3CCN(C)CC3)c2c1 the result was fitted potency 28183 nM (falling, partial curve).

COc1cccc(Cn2c(=O)cnc3cnc(Nc4ccccc4)nc32)c1 read fitted potency 891.3 nM (falling, full curve). With Cc1ccccc1-c1nc(N2CCNCC2)c2ccccc2n1 the assay gave fitted potency 35481 nM (falling, single point). For COc1ccc2[nH]cc(CCNc3cc(-c4ccccc4CN(C)C)ncn3)c2c1 the result was fitted potency 31622 nM (falling, single point). COc1ccc2[nH]cc(CCNc3ncncc3-c3ccccc3C)c2c1 read fitted potency 31622 nM (falling, partial curve). For COc1cccc(Cn2c(=O)cnc3cnc(N4CCN(C)CC4)nc32)c1 the result was fitted potency 15848 nM (falling, partial curve).

With Cc1cnc(CNc2cc(-c3cccnc3)ncn2)cn1 the assay gave fitted potency 31622 nM (falling, partial curve). c1ccc2c(NC3CCNCC3)nc(-c3ccoc3)nc2c1 gave fitted potency 28183 nM (falling, single point). Cc1nc2cnc(Nc3ccccc3)nc2n(C2CC2)c1=O gave fitted potency 1585 nM (falling, full curve). For CS(=O)(=O)Nc1cccc(-c2cncnc2-n2ccnc2)c1 the result was fitted potency 35481 nM (falling, single point).

The first 2 entries again:

| SMILES | fitted potency (nM) | remark |
|---|---|---|
| `Cc1cnc(CNc2cc(-c3ccccc3Cl)ncn2)cn1` | 28183 | falling, partial curve |
| `Fc1ccc(Nc2ncncc2-c2ccoc2)cc1` | 19952 | falling, partial curve |

Data taken from PubChem BioAssay AID1770, deposited by NCATS (2009).